Experimental data reported in patent publication US7875650B2, “Compounds and methods to increase anti-P-glycoprotein activity of baicalein by alkylation on the A ring” (Yale University, priority 2004, dated 2011).
At least one read-out could not be matched to a standard name with certainty.

By UniProt entry, the sequences of proteins in these tests, tags left out.
UniProt P08183, whole entry: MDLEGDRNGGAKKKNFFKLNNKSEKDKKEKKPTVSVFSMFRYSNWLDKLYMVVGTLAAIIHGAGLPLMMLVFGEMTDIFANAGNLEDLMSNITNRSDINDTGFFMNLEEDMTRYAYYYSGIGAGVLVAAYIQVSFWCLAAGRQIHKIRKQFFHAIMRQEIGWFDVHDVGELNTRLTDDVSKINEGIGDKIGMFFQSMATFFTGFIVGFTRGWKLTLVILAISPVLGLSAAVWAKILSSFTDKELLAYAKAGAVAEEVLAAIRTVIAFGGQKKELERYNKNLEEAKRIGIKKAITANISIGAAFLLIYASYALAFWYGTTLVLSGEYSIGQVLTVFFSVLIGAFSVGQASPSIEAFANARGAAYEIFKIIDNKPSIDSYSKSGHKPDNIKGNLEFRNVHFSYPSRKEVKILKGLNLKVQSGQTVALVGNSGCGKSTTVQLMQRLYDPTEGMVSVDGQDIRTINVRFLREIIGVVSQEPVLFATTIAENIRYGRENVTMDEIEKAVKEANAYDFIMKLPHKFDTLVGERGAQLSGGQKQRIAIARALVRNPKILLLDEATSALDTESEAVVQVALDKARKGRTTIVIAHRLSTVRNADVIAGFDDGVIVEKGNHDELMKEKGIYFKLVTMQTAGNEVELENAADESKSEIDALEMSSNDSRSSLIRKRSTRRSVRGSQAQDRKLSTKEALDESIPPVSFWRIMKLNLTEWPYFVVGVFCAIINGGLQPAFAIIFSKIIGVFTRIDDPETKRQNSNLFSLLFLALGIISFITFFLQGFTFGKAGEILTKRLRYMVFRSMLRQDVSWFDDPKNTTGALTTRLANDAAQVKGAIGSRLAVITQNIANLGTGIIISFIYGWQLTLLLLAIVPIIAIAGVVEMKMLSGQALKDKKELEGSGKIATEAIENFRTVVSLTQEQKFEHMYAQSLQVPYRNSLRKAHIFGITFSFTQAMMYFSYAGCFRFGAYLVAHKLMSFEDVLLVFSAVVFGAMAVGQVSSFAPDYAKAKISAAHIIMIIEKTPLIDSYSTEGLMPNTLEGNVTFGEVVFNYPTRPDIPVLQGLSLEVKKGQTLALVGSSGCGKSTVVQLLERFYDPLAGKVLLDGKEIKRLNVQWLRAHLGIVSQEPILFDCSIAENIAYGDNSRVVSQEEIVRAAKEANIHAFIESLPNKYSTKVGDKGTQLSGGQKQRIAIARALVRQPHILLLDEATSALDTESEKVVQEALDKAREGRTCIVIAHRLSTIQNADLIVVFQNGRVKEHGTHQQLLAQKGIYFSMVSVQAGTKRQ

Target: P-gp 170 (Homo sapiens, UniProt P08183)
Test: Vinblastine uptake by the KB/MDR cells (anti-P-gp efflux activity)
Conditions: vinblastine accumulation
From the text: The KB/MDR cells, which overexpress human P-gp 170 protein, were used to evaluate the anti-P-gp 170 activity of drugs. […] The concentration of compound required to achieve 50% maximum accumulation of vinblastine is presented as the EC50 value. The maximum accumulation of intracellular vinblastine caused by the compounds in one hour is expressed as Amax (picomoles/10^6 cells). The cell growth inhibitory activity of compounds is presented as the concentration required to inhibit 50% growth of KB or KB/MDR cell lines (IC50) following three days of compound treatment.
Vinblastine uptake by the KB/MDR cells. KB/MDR cells,^37 which overexpress human P-gp 170 protein, were seeded into 24-well tissue culture plates in RPMI 1640 medium plus 10% fetal bovine serum for 24 hours without the selecting agent doxorubicin (37 nM). The cells were then treated with [^3H]vinblastine plus synthetic flavones in HBSS for 60 minutes. The cells were washed twice with ice-cold PBS, harvested with 1 N NaOH, neutralized with 1 N HCl. The cell aliquots were transferred to scintillation vials and counted with a […] (Beckman, model LS 5000) after adding 10 mL scintillation fluids (SafeScint, American Bioanalytical Co., Natick, Mass.). Data presented are the mean of three independent experiments.

| Compound | anti-P-gp 170 efflux activity (EC50, Amax) in words |
| --- | --- |
| CCOc1cc2oc(-c3ccccc3)cc(=O)c2c(O)c1OCC [Compound 33, 6,7-Diethoxy-5-hydroxyflavone] | higher Amax and less cytotoxicity than either CSA or compound 32 |
| CC(=O)Oc1cc2oc(-c3ccccc3)cc(=O)c2c(OC(C)=O)c1OC(C)=O [Compound 4, 5,6,7-Triacetoxyflavone] | did not differ from compound 2 or 3 |
